The results in this text go back to paper doi:10.1101/2025.01.12.632577.

No constants are given. Whether binding was seen depends on the method and setting. A result given as binding can be weak or reduced; the word gives no strength.

The target of this assay is GMPCPP-stabilized microtubules (pig brain tubulin), co-sedimentation assay (pig). Kind of assay: co-sedimentation.

B1: JPT2 (purified from E. coli) (protein, UniProt Q9H910-1 1-190)
chain: MFQVPDSEGGRAGSRAMKPPGGESSNLFGSPEEATPSSRPNRMASNIFGPTEEPQNIPKRTNPPGGKGSGIFDESTPVQTRQHLNPPGGKTSDIFGSPVTATSRLAHPNKPKDHVFLCEGEEPKSDLKAARSIPAGAEPGEKGSARKAGPAKEQEPMPTVDSHEPRLGPRPRSHNKVLNPPGGKSSISFY
Turning to B1, the binding result is recorded as “binds”.
